Results deposited as PubChem BioAssay AID1259308 (NCATS, 2017)

Assay: 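Candidate targets for better recombinant protein yield in mammalian cells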 (primary screen)
Cells: human HEK293 embryonic kidney cells stably expressing firefly luciferase (HEK-CMV-Luc2-Hygro)
Knock-down reagent: single siRNA against human genes, 0.8 pmol siRNA per well
Duration: 72 h
Detection: 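Luciferase light (ONE-Glo) measured on one replicate plate set and viability (CellTiter-Glo) on the other, scaled to a negative control siRNA, with robust z-scores and luciferase per cell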
Direction: total luciferase, z-score and total luciferase, % of control: higher = more reporter protein produced; luciferase per cell, z-score: higher = more reporter output per viable cell; viable cells, % of control: higher = more viable cells
Active means: 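An siRNA counts as active if its total luciferase robust z-score exceeds 3; genes with two or more such siRNAs out of three were retested with fresh siRNAs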
Calls: active = raised luciferase; inactive = no rise
This is a random part of about 59,000 deposited reagents. About 1,510 of them (2.6%) were called active. 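Calls use total luciferase alone and ignore viability, so some active siRNAs may act by altering cell number.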 The numbers tell different reagents against one gene apart.

| Target gene | siRNA no. | total luciferase, z-score | total luciferase, % of control | luciferase per cell, z-score | viable cells, % of control | call |
| --- | --- | --- | --- | --- | --- | --- |
| RMDN1 (regulator of microtubule dynamics 1) | 1 | -0.00206 | 81.8 | -0.718 | 111 | inactive |
| RMDN1 (regulator of microtubule dynamics 1) | 2 | 1.03 | 102 | 0.758 | 93.6 | inactive |
| RMDN1 (regulator of microtubule dynamics 1) | 3 | -0.532 | 71.3 | -1.04 | 105 | inactive |
| PAQR6 (progestin and adipoQ receptor family member 6) | 1 | -0.199 | 77.9 | -0.573 | 101 | inactive |
| PAQR6 (progestin and adipoQ receptor family member 6) | 2 | -0.106 | 79.8 | -0.385 | 98.7 | inactive |
| PAQR6 (progestin and adipoQ receptor family member 6) | 3 | -0.068 | 80.5 | -0.678 | 108 | inactive |
| MARCHF6 (membrane associated ring-CH-type finger 6) | 1 | -0.604 | 69.9 | -0.657 | 92.8 | inactive |
| MARCHF6 (membrane associated ring-CH-type finger 6) | 2 | 1.33 | 108 | 2.34 | 65.3 | inactive |
| MARCHF6 (membrane associated ring-CH-type finger 6) | 3 | -0.799 | 66 | -1.26 | 103 | inactive |
| SRPK1 (SRSF protein kinase 1) | 1 | 1.9 | 120 | 1.55 | 88.9 | inactive |
| SRPK1 (SRSF protein kinase 1) | 2 | -0.236 | 77.2 | -0.465 | 97.5 | inactive |
| SRPK1 (SRSF protein kinase 1) | 3 | 1.66 | 115 | 0.681 | 107 | inactive |
| FSD1L (fibronectin type III and SPRY domain containing 1 like) | 1 | -0.538 | 71.2 | -0.921 | 101 | inactive |
| FSD1L (fibronectin type III and SPRY domain containing 1 like) | 2 | -0.531 | 71.3 | -0.558 | 92.3 | inactive |
| FSD1L (fibronectin type III and SPRY domain containing 1 like) | 3 | 0.353 | 88.9 | 0.231 | 93.5 | inactive |
| MMADHC (metabolism of cobalamin associated D) | 1 | 1.22 | 106 | 1.21 | 86.2 | inactive |
| MMADHC (metabolism of cobalamin associated D) | 2 | -1.65 | 49 | -1.09 | 73.1 | inactive |
| MMADHC (metabolism of cobalamin associated D) | 3 | -1.38 | 54.5 | -1.23 | 84.2 | inactive |
| BAG5 (BAG cochaperone 5) | 1 | -0.327 | 75.4 | -0.281 | 90.7 | inactive |
| BAG5 (BAG cochaperone 5) | 2 | -0.017 | 81.5 | 0.102 | 88.7 | inactive |
| BAG5 (BAG cochaperone 5) | 3 | 2.7 | 136 | 1.68 | 97.4 | inactive |
| CAPNS1 (calpain small subunit 1) | 1 | 1.89 | 119 | 1.31 | 94.7 | inactive |
| CAPNS1 (calpain small subunit 1) | 2 | -0.00317 | 81.8 | 0.118 | 88.6 | inactive |
| CAPNS1 (calpain small subunit 1) | 3 | 0.864 | 99.1 | 0.801 | 89.7 | inactive |
| DCAF13 (DDB1 and CUL4 associated factor 13) | 1 | -2.06 | 40.8 | -1.99 | 77.2 | inactive |
| DCAF13 (DDB1 and CUL4 associated factor 13) | 2 | 0.327 | 88.4 | 0.0715 | 96.9 | inactive |
| DCAF13 (DDB1 and CUL4 associated factor 13) | 3 | -2.02 | 41.8 | -1.98 | 78.5 | inactive |
| LINC00615 (long independently transcribed non-coding RNA 615) | 1 | -2.19 | 38.4 | -2.25 | 77.7 | inactive |
| LINC00615 (long independently transcribed non-coding RNA 615) | 2 | 0.69 | 95.6 | 0.701 | 88.8 | inactive |
| LINC00615 (long independently transcribed non-coding RNA 615) | 3 | 0.668 | 95.2 | 0.548 | 92.1 | inactive |
| KRT6C (keratin 6C) | 1 | -0.872 | 64.5 | -1.2 | 98.8 | inactive |
| KRT6C (keratin 6C) | 2 | 1.31 | 108 | 0.412 | 108 | inactive |
| KRT6C (keratin 6C) | 3 | -0.223 | 77.4 | -0.274 | 93 | inactive |
| TCP1 (t-complex 1) | 1 | 2.34 | 129 | 2.73 | 70 | inactive |
| TCP1 (t-complex 1) | 2 | 2.97 | 141 | 2.22 | 87.6 | inactive |
| TCP1 (t-complex 1) | 3 | 0.193 | 85.7 | 0.767 | 78.3 | inactive |
| CELF2-AS2 (CELF2 antisense RNA 2) | 1 | -1.02 | 61.6 | -0.0263 | 69.4 | inactive |
| CELF2-AS2 (CELF2 antisense RNA 2) | 2 | -1.43 | 53.4 | -1.15 | 80.8 | inactive |
| CELF2-AS2 (CELF2 antisense RNA 2) | 3 | 0.226 | 86.4 | -0.297 | 104 | inactive |
| NTN5 (netrin 5) | 1 | 0.165 | 85.2 | -0.188 | 100 | inactive |
| NTN5 (netrin 5) | 2 | -0.133 | 79.2 | -0.661 | 105 | inactive |
| NTN5 (netrin 5) | 3 | 2.45 | 131 | 1.46 | 99.5 | inactive |
| MINDY4B (MINDY family member 4B) | 1 | -1.31 | 55.8 | -0.722 | 75.4 | inactive |
| MINDY4B (MINDY family member 4B) | 2 | -0.0224 | 81.4 | -0.151 | 94.7 | inactive |
| MINDY4B (MINDY family member 4B) | 3 | 2.57 | 133 | 1.79 | 92.8 | inactive |
| FUNDC1 (FUN14 domain containing 1) | 1 | 0.553 | 92.9 | 0.358 | 94.5 | inactive |
| FUNDC1 (FUN14 domain containing 1) | 2 | 0.0482 | 82.8 | 0.477 | 81.6 | inactive |
| FUNDC1 (FUN14 domain containing 1) | 3 | -0.0674 | 80.5 | 0.671 | 75.4 | inactive |
| NTRK2 (neurotrophic receptor tyrosine kinase 2) | 1 | -0.391 | 74.1 | 0.326 | 76 | inactive |
| NTRK2 (neurotrophic receptor tyrosine kinase 2) | 2 | -1.3 | 56 | -2.01 | 106 | inactive |
| NTRK2 (neurotrophic receptor tyrosine kinase 2) | 3 | -0.456 | 72.8 | -0.437 | 91.3 | inactive |
| HVCN1 (hydrogen voltage gated channel 1) | 1 | -1.29 | 56.3 | -0.377 | 69.5 | inactive |
| HVCN1 (hydrogen voltage gated channel 1) | 2 | -0.223 | 77.5 | 0.281 | 80.4 | inactive |
| HVCN1 (hydrogen voltage gated channel 1) | 3 | -0.228 | 77.4 | -0.295 | 93.4 | inactive |
| PTPRN (protein tyrosine phosphatase receptor type N) | 1 | -0.882 | 64.3 | -0.545 | 83 | inactive |
| PTPRN (protein tyrosine phosphatase receptor type N) | 2 | -1.11 | 59.8 | -1.52 | 99.6 | inactive |
| PTPRN (protein tyrosine phosphatase receptor type N) | 3 | -0.756 | 66.8 | -0.146 | 77.6 | inactive |
| NRL (neural retina leucine zipper) | 1 | -0.632 | 69.3 | -1.26 | 108 | inactive |
| NRL (neural retina leucine zipper) | 2 | -0.171 | 78.5 | -0.574 | 102 | inactive |
| NRL (neural retina leucine zipper) | 3 | 1.05 | 103 | 1.71 | 73.1 | inactive |
| AK9 (adenylate kinase 9) | 1 | 0.464 | 91.1 | 0.0373 | 101 | inactive |
| AK9 (adenylate kinase 9) | 2 | -1.66 | 48.9 | -1.2 | 75.1 | inactive |
| AK9 (adenylate kinase 9) | 3 | -0.636 | 69.2 | -0.448 | 87.1 | inactive |
| AK9 (adenylate kinase 9) | 4 | 0.387 | 89.6 | -0.129 | 104 | inactive |
| AK9 (adenylate kinase 9) | 5 | -0.853 | 64.9 | -0.765 | 88.7 | inactive |
| AK9 (adenylate kinase 9) | 6 | -0.573 | 70.5 | 0.597 | 67.3 | inactive |
| AK9 (adenylate kinase 9) | 7 | 0.941 | 101 | 0.948 | 87.6 | inactive |
| AK9 (adenylate kinase 9) | 8 | 0.0241 | 82.4 | -0.303 | 99.7 | inactive |
| AK9 (adenylate kinase 9) | 9 | -0.848 | 65 | -0.754 | 88.6 | inactive |
| SERPINB1 (serpin family B member 1) | 1 | 0.406 | 90 | 0.674 | 84.2 | inactive |
| SERPINB1 (serpin family B member 1) | 2 | -0.108 | 79.7 | -0.268 | 95.6 | inactive |
| SERPINB1 (serpin family B member 1) | 3 | 0.519 | 92.2 | 0.174 | 98.4 | inactive |
| GALNT10 (polypeptide N-acetylgalactosaminyltransferase 10) | 1 | -0.345 | 75 | 0.561 | 72.3 | inactive |
| GALNT10 (polypeptide N-acetylgalactosaminyltransferase 10) | 2 | -0.53 | 71.3 | 0.608 | 67.9 | inactive |
| GALNT10 (polypeptide N-acetylgalactosaminyltransferase 10) | 3 | 0.657 | 95 | 0.455 | 94.1 | inactive |

3 successive entries already listed, for reference:
| Target gene | siRNA no. | total luciferase, z-score | total luciferase, % of control | luciferase per cell, z-score | viable cells, % of control | call |
| --- | --- | --- | --- | --- | --- | --- |
| FUNDC1 (FUN14 domain containing 1) | 3 | -0.0674 | 80.5 | 0.671 | 75.4 | inactive |
| NTRK2 (neurotrophic receptor tyrosine kinase 2) | 1 | -0.391 | 74.1 | 0.326 | 76 | inactive |
| NTRK2 (neurotrophic receptor tyrosine kinase 2) | 2 | -1.3 | 56 | -2.01 | 106 | inactive |
